Melanoma cell counts after drug treatment

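Human melanoma cells were exposed to two drugs together for 72 h in 1,536-well plates and read by automated microscopy after fixing and staining. The read-out is cell count (nuclei) in % of the DMSO control; lower values mean stronger growth inhibition or killing. Concentrations were fixed for each drug; these are the lower of two levels, a fifth of the higher. No replicate spread is given; individual values may be noisy.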 This is part of the screen, not chosen by result. An entry leaves out what has no value listed here. A dash means that no value is listed here.

Compounds and concentrations:
KU-55933, 1000 nM: O=c1cc(-c2cccc3c2Sc2ccccc2S3)oc(N2CCOCC2)c1
MK-1775, 20 nM: C=CCn1c(=O)c2cnc(Nc3ccc(N4CCN(C)CC4)cc3)nc2n1-c1cccc(C(C)(C)O)n1
decitabine, 100 nM: Nc1ncn([C@H]2C[C@H](O)[C@@H](CO)O2)c(=O)n1
tipifarnib, 10 nM: Cn1cncc1[C@@](N)(c1ccc(Cl)cc1)c1ccc2c(c1)c(-c1cccc(Cl)c1)cc(=O)n2C
selumetinib, 15 nM: Cn1cnc2c(F)c(Nc3ccc(Br)cc3Cl)c(C(=O)NOCCO)cc21
OSI-906, 400 nM: C[C@]1(O)C[C@@H](c2nc(-c3ccc4ccc(-c5ccccc5)nc4c3)c3c(N)nccn32)C1
sunitinib, 400 nM: CCN(CC)CCNC(=O)c1c(C)[nH]c(/C=C2\C(=O)Nc3ccc(F)cc32)c1C
tamatinib, 400 nM: COc1cc(Nc2ncc(F)c(Nc3ccc4c(n3)NC(=O)C(C)(C)O4)n2)cc(OC)c1OC
L-779450, 200 nM: Oc1cc(-c2nc(-c3ccccc3)[nH]c2-c2ccncc2)ccc1Cl
embelin, 1200 nM: CCCCCCCCCCCC1=C(O)C(=O)C=C(O)C1=O

For L-779450 and sunitinib the values were IST-MEL1: 99.8; MEL-HO: 83.5; COLO 800: 69.1; IPC-298: 83.1; COLO 792: 88.8; A101D: 84.8; 501mel: 64.1; C32: 79.9. L-779450 and tipifarnib gave IST-MEL1: 95.4; MEL-HO: 85.0; COLO 800: 76.1; IPC-298: 84.2; COLO 792: 86.5; A101D: 87.8; 501mel: 55.2; C32: 96.5. selumetinib and tamatinib gave IST-MEL1: 87.7; MEL-HO: 94.0; COLO 800: 84.5; IPC-298: 56.9; COLO 792: 52.6; A101D: 84.6; C32: 80.5. Results for tipifarnib and OSI-906 are IST-MEL1: 73.0; MEL-HO: 80.0; COLO 800: 40.7; IPC-298: 80.5; COLO 792: 102; A101D: 86.9; C32: 83.8. For MK-1775 and OSI-906 the values were IST-MEL1: 105; MEL-HO: 101; COLO 800: 47.1; IPC-298: 80.7; COLO 792: 90.0; A101D: 69.5; C32: 99.8.

KU-55933 and tipifarnib gave IST-MEL1: 97.0; MEL-HO: 87.3; COLO 800: 83.3; IPC-298: 96.3; COLO 792: 90.4; A101D: 90.8; 501mel: 80.2; C32: 92.3. KU-55933 and decitabine gave IST-MEL1: 94.2; MEL-HO: 68.4; COLO 800: 62.0; IPC-298: 69.9; COLO 792: 90.0; A101D: 90.4; 501mel: 93.0; C32: 88.8. Results for L-779450 and MK-1775 are IST-MEL1: 100; MEL-HO: 82.3; COLO 800: 91.8; IPC-298: 81.2; COLO 792: 96.8; A101D: 90.1; 501mel: 71.9; C32: 88.8. selumetinib and tipifarnib gave IST-MEL1: 92.2; MEL-HO: 89.8; COLO 800: 95.9; IPC-298: 61.4; COLO 792: 92.6; A101D: 85.2; C32: 91.5. With embelin and selumetinib the screen read IST-MEL1: 102; MEL-HO: 88.4; COLO 800: 91.0; IPC-298: 68.6; COLO 792: 80.3; A101D: 90.5; C32: 80.6.

For selumetinib and decitabine the values were IST-MEL1: 79.8; MEL-HO: 90.4; COLO 800: 99.1; IPC-298: 55.8; COLO 792: 57.6; A101D: 83.5; C32: 95.2. With MK-1775 and embelin the screen read IST-MEL1: 105; MEL-HO: 90.8; COLO 800: 103; IPC-298: 97.1; COLO 792: 89.6; A101D: 82.3; 501mel: 109; C32: 103. tamatinib and L-779450 gave IST-MEL1: 92.1; MEL-HO: 83.5; COLO 800: 56.5; IPC-298: 74.6; COLO 792: 60.6; A101D: 75.1; 501mel: 68.7; C32: 80.0. For KU-55933 and selumetinib the values were IST-MEL1: 98.9; MEL-HO: 103; COLO 800: 69.1; IPC-298: 61.8; COLO 792: 81.1; A101D: 89.3; C32: 91.2. For sunitinib and embelin the values were IST-MEL1: 101; MEL-HO: 106; COLO 800: 94.6; IPC-298: 98.1; COLO 792: 97.3; A101D: 92.9; 501mel: 77.3; C32: 93.3.

With selumetinib and L-779450 the screen read IST-MEL1: 90.1; MEL-HO: 89.5; COLO 800: 81.6; IPC-298: 98.4; COLO 792: 74.3; A101D: 73.8; C32: 67.7. Results for selumetinib and OSI-906 are IST-MEL1: 88.2; MEL-HO: 89.0; COLO 800: 54.3; IPC-298: 67.6; COLO 792: 78.9; A101D: 77.4; C32: 96.0. For embelin and tipifarnib the values were IST-MEL1: 102; MEL-HO: 98.4; COLO 800: 79.4; IPC-298: 105; COLO 792: 103; A101D: 99.6; 501mel: 85.5; C32: 98.9. MK-1775 and sunitinib gave IST-MEL1: 107; MEL-HO: 113; COLO 800: 71.4; IPC-298: 102; COLO 792: 83.5; A101D: 66.7; C32: 86.0. KU-55933 and MK-1775 gave IST-MEL1: 112; MEL-HO: 94.2; COLO 800: 91.0; IPC-298: 88.4; COLO 792: 98.1; A101D: 81.1; 501mel: 108; C32: 100.

OSI-906 and tamatinib gave IST-MEL1: 92.6; MEL-HO: 85.4; COLO 800: 28.2; IPC-298: 67.4; COLO 792: 46.6; A101D: 79.6; C32: 81.7. Results for sunitinib and tamatinib are IST-MEL1: 97.1; MEL-HO: 80.5; COLO 800: 59.5; IPC-298: 74.5; COLO 792: 56.1; A101D: 84.4; C32: 81.5. OSI-906 and embelin gave IST-MEL1: 102; MEL-HO: 99.9; COLO 800: 55.8; IPC-298: 88.7; COLO 792: 96.2; A101D: 0.6; 501mel: 91.7; C32: 110. For OSI-906 and sunitinib the values were IST-MEL1: 93.8; MEL-HO: 81.5; COLO 800: 67.4; IPC-298: 89.7; COLO 792: 93.6; A101D: 89.6; C32: 95.6. With decitabine and MK-1775 the screen read IST-MEL1: 88.9; MEL-HO: 79.8; COLO 800: 84.2; IPC-298: 65.6; COLO 792: 85.2; A101D: 76.1; C32: 95.8.

For tipifarnib and decitabine the values were IST-MEL1: 75.3; MEL-HO: 83.9; COLO 800: 88.9; IPC-298: 67.6; COLO 792: 72.6; A101D: 96.0; C32: 94.3. Results for decitabine and sunitinib are IST-MEL1: 95.5; MEL-HO: 85.1; COLO 800: 76.0; IPC-298: 73.0; COLO 792: 83.5; A101D: 75.6; C32: 81.6. Results for tamatinib and embelin are IST-MEL1: 84.8; MEL-HO: 106; COLO 800: 73.5; IPC-298: 81.7; COLO 792: 53.2; A101D: 95.3; 501mel: 94.9; C32: 106. For sunitinib and tipifarnib the values were IST-MEL1: 91.6; MEL-HO: 89.7; COLO 800: 121; IPC-298: 90.0; COLO 792: 93.9; A101D: 83.6; C32: 83.9. For KU-55933 and sunitinib the values were IST-MEL1: 102; MEL-HO: 106; COLO 800: 77.4; IPC-298: 95.2; COLO 792: 76.7; A101D: 94.8; 501mel: 65.1; C32: 86.7.

Once more, the final 2:

| Drugs | IST-MEL1 | MEL-HO | COLO 800 | IPC-298 | COLO 792 | A101D | 501mel | C32 |
|---|---|---|---|---|---|---|---|---|
| sunitinib and tipifarnib | 91.6 | 89.7 | 121 | 90.0 | 93.9 | 83.6 | - | 83.9 |
| KU-55933 and sunitinib | 102 | 106 | 77.4 | 95.2 | 76.7 | 94.8 | 65.1 | 86.7 |

From a melanoma drug combination screen (doi:10.1371/journal.pone.0140310); values rounded.